Assay results taken from patent US20060083770A1, “Medical devices and methods of preparation and use” (Specialty Coating Systems, Inc., priority 2004, published 2006).
At least one compound was matched to its structure with a doubt left.

Experiment: Release of dexamethasone from loaded parylene membranes into ethanol:buffer solution, UV/Vis quantification
Assay type: physicochemical
Conditions: about 90 mg parylene C membrane, about 37.5 mm^2, ethanol:buffer solution

C[C@@H]1C[C@H]2[C@@H]3CCC4=CC(=O)C=C[C@]4(C)[C@@]3(F)[C@@H](O)C[C@]2(C)[C@@]1(O)C(=O)CO [dexamethasone]
amount of dexamethasone loaded into and controllably released from the membrane: more than 0.0075 mg | period of significant release amounts of drug: more than 50 hours
